Test results published in PubChem BioAssay AID662 (National Center for Advancing Translational Sciences (NCATS), 2007).
Several values for one entry are separate records, joined by “and”; a condition that tells them apart may be missing. Equal entries are not always repeated. The list shows a part of the results. Shown are side measurements of this screen, not its main read-out; they come without a call. The list favours compounds with an active or inconclusive main result. Potencies come from curve fits of mixed quality, noted in brackets.

Experiment: Cell signaling CRE-BLA (Fsk stim)
Settings: CHO CRE-bla reporter (cAMP response element driving beta-lactamase), forskolin EC10, beta-lactamase ratio; measured here: 460 nm blue channel
How it was run: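 Beta-lactamase reporter under a cAMP responsive element in CHO cells; compounds tested in titration series against EC10 NKH 477, 3 h at 37 °C. Read-out: CCF4 FRET ratio 460nm/530nm (excitation 405nm) giving %Activity, fitted to AC50.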

SMILES	AC50
CC(C)CCn1c(CN(C)Cc2ccccc2)nc2c1c(=O)n(C)c(=O)n2C	0.01 µM [falling, full curve, poor fit]
c1ccc2[nH]c(SCc3ccc(-c4nnco4)cc3)nc2c1	15.8 µM [rising, single point]
CCN1/C(=C/C(=O)c2ccco2)Sc2ccccc21	10 µM [rising, partial curve]
COc1cc2nc3c(c([Si](C)(C)C(C)(C)C)c2cc1OC)Cn1c-3cccc1=O	12.6 µM [rising, partial curve]
CC1CCCCC1n1c(=S)[nH]c2ccccc2c1=O (configuration not stated)	12.6 µM [rising, partial curve]
COCCn1c(=O)c(CCc2ccccc2)nc2cnc(N(C)C)nc21	12.6 µM [rising, partial curve]
COc1ccccc1NC(=O)c1ccccc1NS(C)(=O)=O	1.26 µM [rising, full curve]
CCCCc1ccc(NS(=O)(=O)N(C)C)cc1	0.0251 µM [rising, full curve]
CCNC(=O)c1ccccc1NC(=O)c1cccc(S(=O)(=O)N2CCC(C)CC2)c1	12.6 µM [rising, partial curve]
Cc1ccc(C2CC(c3ccccc3OC(F)F)Nc3ncnn32)cc1 (configuration not stated)	15.8 µM [rising, single point]
COc1cc(C(c2sc3nc(C)nn3c2O)N2CCc3ccccc3C2)cc(OC)c1OC (configuration not stated)	12.6 µM [rising, partial curve]
CN1CCCC[C@@H]1CCN1c2ccccc2Sc2ccc(S(C)=O)cc21 (some centres not stated)	0.0316 µM [rising, full curve, poor fit]
CCC(C(=O)N1CCc2cc(OC)c(OC)cc2C1)c1ccccc1 (configuration not stated)	10 µM [falling, partial curve, poor fit]
Cc1nccn1-c1c2c(c(C#N)c3nc4ccccc4n13)CCC2	3.16 µM [rising, partial curve]
CCN(CC)C(=O)c1sc2nc(-c3ccccn3)[nH]c(=O)c2c1C	10 µM [rising, partial curve]
CCn1c(SCC(=O)N2CCCc3ccccc32)nc2ccccc2c1=O	12.6 µM [rising, single point]
C=C1C(=O)O[C@@H]2[C@@H]1CC/C(C)=C\CC[C@@]1(C)O[C@H]21	15.8 µM [falling, partial curve] and 5.01 µM [falling, partial curve]
c1ccc(-c2nc(NC3CC3)nc(-n3ccnc3)n2)cc1	0.251 µM [rising, full curve]
N#CC1=C(N)SC(N)=C(C#N)C1c1cccc(Oc2ccccc2)c1	25.1 µM [falling, single point]
Cc1ccc(C)c(N2CCN(C(=O)CCCn3c(=S)[nH]c4cc5c(cc4c3=O)OCO5)CC2)c1	1.58 µM [rising, full curve]
O=C(CS(=O)(=O)Cc1ccccc1)N1CCN(Cc2ccc3c(c2)OCO3)CC1	3.98 µM [falling, partial curve, poor fit]
CCC/C(O)=C1\C(=O)CC(C)(C)CC1=Nc1ccc(OC)cc1OC	3.16 µM [rising, partial curve]
COc1cc(C(c2nnnn2C(C)(C)C)N2CCN(c3nc4ccccc4s3)CC2)ccc1O (configuration not stated)	7.94 µM [falling, partial curve]

SMILES	AC50
CCCC(=O)NCCc1cc2cc(C)c(C)cc2[nH]c1=O	2.51 µM [rising, single point]
Cc1cc(N2CCN(c3ccccc3)CC2)nc(-n2nc(C)cc2C)n1	12.6 µM [rising, partial curve]
Cc1nnc(SCCn2c(N3CC(C)CC(C)C3)nc3c2c(=O)[nH]c(=O)n3C)s1 (configuration not stated)	12.6 µM [rising, single point]
CCOC(=O)C1Cn2c(nc3c(c2=O)C(C)(CC)Cc2ccccc2-3)S1 (configuration not stated)	12.6 µM [rising, single point]
O=C(c1cccc(-c2nnc(-c3ccccc3)o2)c1)N1CCCCC1	12.6 µM [rising, partial curve, poor fit]
CC(=O)Nc1cccc(NC(=O)CSc2ncc(-c3ccc(Cl)cc3)n2Cc2ccco2)c1	31.6 µM [falling, single point]
Cc1nc2ncnn2c(C)c1CCC(=O)N1CCOCC1	5.01 µM [falling, partial curve]
CCNc1ncc2nc(C)c(=O)n(Cc3ccc(F)cc3)c2n1	7.94 µM [rising, partial curve]
O=C(Nc1ccccc1C(F)(F)F)C1CC(=O)N(c2ccccc2F)C1 (configuration not stated)	2.51 µM [falling, single point]
O=C(Nc1ccc2c(c1)OCCO2)NC1CCCCC1	0.02 µM [rising, full curve, poor fit]
CCOC(=O)c1sc(-c2ccccc2)cc1NC(=O)CSc1nnnn1C	10 µM [rising, partial curve]
OC(COc1cccc2ccccc12)CN1CCN(c2ccccn2)CC1 (configuration not stated)	0.1 µM [falling, full curve, poor fit]
CCCn1c(-c2ccc(F)cc2)nc2c(NCCN3CCSCC3)nc(C)nc21	3.16 µM [rising, full curve]
CC(C)NC(=O)N1CCC2(CC1)CCN(C(=O)c1ccco1)CC2	5.01 µM [falling, single point]
COC(=O)C1=C(C)NC(C)=C(C(=O)OC)C1c1ccc(N(C)C)cc1	0.398 µM [falling, partial curve]
CCSc1nc2c(cnn2-c2ccc(C)cc2)c(=O)[nH]1	6.31 µM [rising, partial curve]
COC(=O)c1c[nH]n2c(=O)c(Cc3ccc(F)cc3Cl)c(C)nc12	25.1 µM [rising, single point]
OC(CN1CCOCC1)CN1CCOCC1	10 µM [falling, partial curve]
CCOc1ccc(N(CC(=O)Nc2ccc3c(c2)OCCO3)S(=O)(=O)c2c(C)noc2C)cc1	10 µM [falling, single point]
Cc1ccc(C)c2[nH]c(=O)c(CCNC(=O)c3ccc(Br)o3)cc12	5.01 µM [rising, partial curve]
CC(C)c1nc2oc3c(NCC4CCCO4)ncnc3c2c2c1COC(C)(C)C2 (configuration not stated)	1 µM [rising, full curve]
CCOC(=O)c1ccccc1NC(=O)CSc1nc2ccccc2n1CC(=O)N1CCCC1	2 µM [rising, partial curve]
COc1ccc(-c2nc(C#N)c(NCC3CCCO3)o2)cc1OC (configuration not stated)	10 µM [rising, partial curve]

SMILES	AC50
CCCn1c(SCC(=O)N2CCCC2)nc2c1c(=O)n(C)c(=O)n2C	10 µM [rising, partial curve]
CCCn1c(=O)c(C(=O)NCc2cccnc2)c(O)c2ccccc21	3.16 µM [rising, full curve]
O=C(Nc1ccc(-c2cn3ccsc3n2)cc1)c1ccc(F)c(S(=O)(=O)N2CCOCC2)c1	3.16 µM [rising, full curve]
Clc1ccccc1Cn1nnc2c(NCC3CC3)ncnc21	10 µM [rising, partial curve]
CCn1c(CCC(=O)Nc2cc(F)ccc2C)nc2cc(S(=O)(=O)N(C)C)ccc21	12.6 µM [rising, single point]
COc1ccccc1CNc1ccnc(-c2c(C)noc2C)n1	12.6 µM [rising, single point]
CCOc1ccc2[nH]c(O)c(NC(C)=O)c2c1	3.16 µM [falling, partial curve]
Cc1nc2ccc(NC(=O)N3CCSCC3)cc2nc1C	10 µM [rising, partial curve]
Cc1nc(C)c(C(=O)C2=C(O)C(=O)N(CCN3CCOCC3)C2c2cccs2)s1 (configuration not stated)	0.00316 µM [falling, full curve, poor fit]
COC(=O)c1ccc2c(c1)NC(=O)C(N1CCOCC1)S2 (configuration not stated)	0.0316 µM [falling, full curve, poor fit]
O=C(c1ccco1)c1nnn(Cc2ccccc2)c1-c1ccccc1	20 µM [falling, single point]
N#CC1=C(N)Oc2c(oc(CO)cc2=O)C1c1cccs1 (configuration not stated)	5.01 µM [falling, single point]
COc1ccc2[nH]c(=O)c(C(c3nnnn3CC3CCCO3)N3CCc4ccccc4C3)cc2c1 (configuration not stated)	20 µM [rising, single point]
CCOC(=O)N1CCN(C(=O)c2cn(CC)c3ccc(S(=O)(=O)N4CCCC4)cc3c2=O)CC1	25.1 µM [rising, single point]
CC(=O)Oc1ccccc1C(=O)Oc1ccc(/C=N/n2cnnc2)cc1	10 µM [falling, partial curve]
CCNc1ncc2nc(-c3cccc(C#N)c3)c(=O)n(Cc3cccc(OC)c3)c2n1	0.251 µM [rising, full curve]
O=S(=O)(NCCc1cn2ccccc2n1)c1ccc(F)c(C(F)(F)F)c1	25.1 µM [falling, single point]
Cc1ccc(-n2nc(C)c3c2OC(N)=C(C#N)C3c2ccc(F)cc2)cc1 (configuration not stated)	0.1 µM [falling, partial curve]
CCCC(C)n1[nH]c(=O)c2c(C)cc(C)nc21 (configuration not stated)	10 µM [rising, single point]
COc1cccc(Cn2c(=O)c(-c3ccc(Cl)cc3)nc3cnc(OC)nc32)c1	10 µM [rising, partial curve]
Cc1c(C(=O)Nc2ccc(Cl)cn2)oc2ccccc12	0.794 µM [rising, full curve, poor fit]

Pulled one by one from the entries so far (three):
SMILES	AC50
CC(=O)Oc1ccccc1C(=O)Oc1ccc(/C=N/n2cnnc2)cc1	10 µM [falling, partial curve]
CCCn1c(=O)c(C(=O)NCc2cccnc2)c(O)c2ccccc21	3.16 µM [rising, full curve]
CCn1c(CCC(=O)Nc2cc(F)ccc2C)nc2cc(S(=O)(=O)N(C)C)ccc21	12.6 µM [rising, single point]
